{"source": "paper PMC5776125", "binders": {"B1": {"name": "Human wt S100B (protein, UniProt P04271 1-92)", "chain": "MSELEKAMVALIDVFHQYSGREGDKHKLKKSELKELINNELSHFLEEIKEQEVVDKVMETLDNDGDGECDFQEFMAFVAMVTTACHEFFEHE"}}, "molecular_target": "Human wt S100B (human) (UniProt P04271)", "assay": "native gel or EMSA + SEC; data not shown; purified recombinant S100B dimer and tetramer added to rat hippocampal cultures; SDS-PAGE also named; both purified", "note": "Results are given in words; binding and its absence hold for the method and conditions named. Some entries that bind do so weakly or less than the wild type."}
{"binder": "B1", "values": [{"measurement": "binding", "result": "binds"}]}
